{
  "source": "patent US9598412B2",
  "about": "“Spiroindoline compounds for use as anthelminthics” (Intervet, Inc., priority 2010, dated 2017)",
  "note": "Some of these results come from one statement about several compounds together.",
  "data": [
    {"test_system": "Haemonchus contortus", "experiment": "Efficacy against Haemonchus contortus in jirds", "assay_type": "in vivo", "details": "jirds (Meriones unguiculatus), treated once orally at 10 mg/kg ten days after infection, necropsy three days after treatment", "protocol": "(§1) Compounds according to this invention (numbers refer to the compound number in Table 1) were tested in vivo using Haemonchus contortus in jirds (Meriones unguiculatus). The jirds were orally infected with approximately 750-3.000 third-stage larvae of Haemonchus contortus. Ten days after infection, the jirds in the treatment groups were treated once either orally or subcutaneously with compounds at a dose of 10 mg or 50 mg per kg bodyweight. Three days after treatment, the jirds were necropsied, and the larvae burden in the stomach was determined. During the study no side-effects in jirds were observed. The efficacy was defined as the reduction of the mean larvae count in the infected jirds of the treatment group in comparison to the infected jirds in an untreated control group (negative control).", "values": [
      {"molecule": "COc1ccc2c(c1)C1(CCN(C/C=C/c3ccc(C)cc3)CC1)CN2C(=O)c1ccnc(Cl)c1", "note": "[Compound 99]", "reduction of the Haemonchus contortus count (mean larvae count in stomach vs untreated control group)": "at least 50%"},
      {"molecule": "COc1ccc2c(c1)C1(CCN(C/C=C/c3ccc(C(F)(F)F)cc3)CC1)CN2C(=O)c1ccnc(Cl)c1", "note": "[Compound 90]", "reduction of the Haemonchus contortus count (mean larvae count in stomach vs untreated control group)": "at least 50%"},
      {"molecule": "COc1ccc2c(c1)C1(CCN(C/C=C/c3ccc(F)cc3F)CC1)CN2C(=O)c1ccnc(Cl)c1", "note": "[Compound 93]", "reduction of the Haemonchus contortus count (mean larvae count in stomach vs untreated control group)": "at least 50%"},
      {"molecule": "COc1ccc2c(c1)C1(CCN(C/C=C/c3ccc(F)cc3)CC1)CN2C(=O)c1ccnc(Cl)c1", "note": "[Compound 92]", "reduction of the Haemonchus contortus count (mean larvae count in stomach vs untreated control group)": "at least 50%"},
      {"molecule": "Cc1ccc(/C=C/CN2CCC3(CC2)CN(C(=O)c2ccnc(Cl)c2)c2ccc(OC(F)(F)F)cc23)cc1", "note": "[Compound 65]", "reduction of the Haemonchus contortus count (mean larvae count in stomach vs untreated control group)": "at least 50%"}
    ]},
    {"test_system": "Haemonchus contortus", "experiment": "Efficacy against Haemonchus contortus in jirds", "assay_type": "in vivo", "details": "jirds (Meriones unguiculatus), treated once subcutaneously at 10 mg/kg ten days after infection, necropsy three days after treatment", "protocol": "as §1", "values": [
      {"molecule": "COc1ccc2c(c1)C1(CCN(C/C=C/c3ccc(Cl)c(Cl)c3)CC1)CN2C(=O)c1ccnc(Cl)c1", "note": "[Compound 89]", "reduction of the Haemonchus contortus count (mean larvae count in stomach vs untreated control group)": "at least 50%"},
      {"molecule": "COc1ccc2c(c1)C1(CCN(C/C=C/c3ccc(Cl)cc3)CC1)CN2C(=O)c1ccnc(Cl)c1", "note": "[Compound 91]", "reduction of the Haemonchus contortus count (mean larvae count in stomach vs untreated control group)": "at least 50%"},
      {"molecule": "O=C(c1ccnc(Cl)c1)N1CC2(CCN(C/C=C/c3ccc(F)cc3)CC2)c2cc(OC(F)(F)F)ccc21", "note": "[Compound 44]", "reduction of the Haemonchus contortus count (mean larvae count in stomach vs untreated control group)": "at least 50%"},
      {"molecule": "COc1ccc2c(c1)C1(CCN(C/C=C/c3ccc(Cl)cc3F)CC1)CN2C(=O)c1ccnc(Cl)c1", "note": "[Compound 94]", "reduction of the Haemonchus contortus count (mean larvae count in stomach vs untreated control group)": "at least 50%"},
      {"molecule": "O=C(c1ccnc(Cl)c1)N1CC2(CCN(C/C=C/c3ccc(F)c(F)c3)CC2)c2cc(OC(F)(F)F)ccc21", "note": "[Compound 45]", "reduction of the Haemonchus contortus count (mean larvae count in stomach vs untreated control group)": "at least 50%"}
    ]}
  ]
}
